In the supplement of paper PMC10727501:
Counter-ions that a name gives are not always drawn. The list shows a part of the results. Single values are uncertain here, since repeats match poorly.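 Free-swimming zebrafish larvae were scored for O-bend response probability to dark flashes (naive: first five; training: remaining flashes of four 60-flash blocks; test: later 60-flash block) and for turning toward alternating leftward/rightward LED motion (OMR). Six treated larvae were compared with sixty 0.1% DMSO controls; |SSMD|≥2 defined a hit.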

Experiments:
Conditions in all cases: 10 µM; pre-incubation: 30-90 min
[1] = test system: Danio rerio larvae (5 dpf, TLF); experiment: OMR-Perf (SSMD vs DMSO vehicle); higher = higher than vehicle (e.g. higher dark-flash O-bend response probability, or better optomotor performance)
[2] = test system: Danio rerio larvae (5 dpf, TLF); experiment: Prob-Test (SSMD vs DMSO vehicle); higher = higher than vehicle (e.g. higher dark-flash O-bend response probability, or better optomotor performance)
[3] = test system: Danio rerio larvae (5 dpf, TLF); experiment: Prob-Naive (SSMD vs DMSO vehicle); higher = higher than vehicle (e.g. higher dark-flash O-bend response probability, or better optomotor performance)
[4] = test system: Danio rerio larvae (5 dpf, TLF); experiment: Prob-Train (SSMD vs DMSO vehicle); higher = higher than vehicle (e.g. higher dark-flash O-bend response probability, or better optomotor performance)

SMILES | OMR-Perf [1] | Prob-Test [2] | Prob-Naive [3] | Prob-Train [4]
N#C/C(=C\c1ccc(O)c(O)c1)C(=O)NCc1ccccc1 [AG-490 (Tyrphostin B42)] | 0.331 | 0.62 | -0.115 | 0.172
CO[C@H]1[C@@H](O[C@H]2O[C@@H](C)[C@H](O[C@@H]3C[C@](C)(O)[C@H](O)[C@@H](C)O3)[C@@H](N(C)C)[C@@H]2O)[C@@H](CC=O)C[C@@H](C)[C@@H](O[C@H]2CC[C@H](N(C)C)[C@H](C)O2)/C=C/C=C/C[C@@H](C)OC(=O)C[C@H]1O [Spiramycin] | -0.536 | 0.596 | -0.265 | 0.538
COc1nc(N)nc2c1ncn2[C@@H]1O[C@H](CO)[C@@H](O)[C@@H]1O [Nelarabine] | 0.265 | 0.435 | 0.459 | 0.126
CCNC(=O)Nc1ccc(-c2nc3c(c(N4CCOC[C@@H]4C)n2)CCN(C2COC2)C3)cc1 | 0.131 | 0.172 | 0.135 | 0.841
Cc1onc(-c2ccccc2)c1C(=O)N[C@@H]1C(=O)N2[C@@H]1SC(C)(C)[C@H]2C(=O)[O-].O.[Na+] [Oxacillin sodium monohydrate] | 0.169 | 0.876 | -0.142 | 0.369
Cc1ccc(C(=O)N(CCCN)[C@@H](c2nc3cc(Cl)ccc3c(=O)n2Cc2ccccc2)C(C)C)cc1 | 0.164 | -0.65 | 0.214 | -0.222
COc1ccccc1S(=O)(=O)Nc1ccc2c(c1)CN(C)C(=O)N2 | -0.421 | 0.294 | 0.233 | 0.174
Cc1onc(-c2ccccc2Cl)c1C(=O)N[C@@H]1C(=O)N2[C@@H](C(=O)[O-])C(C)(C)S[C@@H]12.O.[Na+] [Cloxacillin Sodium] | 0.954 | 0.955 | 0.204 | 1.35
COc1cc(C2Oc3ccc(C4Oc5cc(O)cc(O)c5C(=O)C4O)cc3OC2CO)ccc1O (centres undefined) [Silymarin] | -0.232 | -0.378 | -0.91 | -0.168
C[C@@H]1O[C@@H]1P(=O)(O)O [Fosfomycin Tromethamine] | -0.276 | -0.325 | 0.298 | -0.616
OCCN(CCO)c1nc(N2CCCCC2)c2nc(N(CCO)CCO)nc(N3CCCCC3)c2n1 [Dipyridamole] | -0.213 | -0.196 | 0.302 | 0.0685
CCCN[C@H]1CCc2nc(N)sc2C1.Cl.Cl.O [Pramipexole dihydrochloride monohydrate] | -0.356 | 0.18 | 0.131 | 0.0122
CC(C)C[C@H](NC(=O)[C@H](Cc1ccccc1)NC(=O)c1cnccn1)B(O)O [Bortezomib (PS-341)] | -0.37 | -0.474 | 0.456 | 0.381
Cc1ccc(F)c(NC(=O)Nc2ccc(-c3cccc4[nH]nc(N)c34)cc2)c1 [Linifanib (ABT-869)] | -0.156 | 0.0668 | -0.115 | -0.0128
CN1CCN(c2cc3c(cc2F)c(=O)c(C(=O)O)cn3-c2ccc(F)cc2)CC1 [Difloxacin HCl] | -0.24 | -0.191 | 0.444 | 0.272
CCn1nc(C(=O)O)c(=O)c2cc3c(cc21)OCO3 [Cinoxacin] | -0.385 | -0.129 | 0.0912 | 0.0698
CC(C)NCC(O)c1ccc(NS(C)(=O)=O)cc1.Cl (centres undefined) [Sotalol] | 0.22 | -0.0514 | -0.558 | -0.32
O=C(NOCC(O)CO)c1cc(Br)c(F)c(F)c1Nc1ccc(I)cc1F (centres undefined) | 0.043 | -1.61 | 0.564 | -0.726
CC1(C)O[C@@H]2C[C@H]3[C@@H]4CCC5=CC(=O)CC[C@]5(C)[C@]4(F)[C@H](O)C[C@]3(C)[C@@]2(C(=O)CCl)O1 [Halcinonide] | 0.255 | -0.0863 | 0.351 | 0.00574
NCCS(=O)(=O)O [Taurine] | -0.564 | -0.528 | -0.0745 | -0.311
CS(=O)(=O)c1ccc(C2=C(c3ccccc3)C(=O)OC2)cc1 [Rofecoxib] | 0.154 | -0.214 | -0.106 | -0.0311
O=C1Cc2c([nH]c3ccc(Br)cc23)-c2ncccc2N1 [1-Azakenpaullone] | -0.232 | -0.448 | -0.32 | -0.519
Nc1cccc2c1C(=O)N(C1CCC(=O)NC1=O)C2=O (centres undefined) [Pomalidomide] | 0.0176 | -0.268 | 0.454 | 0.0978
CN1CC(=O)N2[C@H](c3ccc4c(c3)OCO4)c3[nH]c4ccccc4c3C[C@@H]2C1=O [Tadalafil] | 0.124 | 0.122 | -0.293 | 0.54
CC(O)C1C(=O)N2C(C(=O)O)=C(SC3CNC(C(=O)N(C)C)C3)C(C)C12 (centres undefined) [Meropenem] | -0.159 | 0.709 | 0.549 | 0.694
CCCCN(Cc1ccc(C(=O)NO)cc1)C(=O)Nc1ccccc1 [Nexturastat A] | -0.116 | 0.206 | 0.446 | 0.155

Taken from above.
NCCS(=O)(=O)O [Taurine] | Prob-Train [4]: -0.311
Cc1onc(-c2ccccc2)c1C(=O)N[C@@H]1C(=O)N2[C@@H]1SC(C)(C)[C@H]2C(=O)[O-].O.[Na+] [Oxacillin sodium monohydrate] | Prob-Test [2]: 0.876
CS(=O)(=O)c1ccc(C2=C(c3ccccc3)C(=O)OC2)cc1 [Rofecoxib] | Prob-Train [4]: -0.0311
CO[C@H]1[C@@H](O[C@H]2O[C@@H](C)[C@H](O[C@@H]3C[C@](C)(O)[C@H](O)[C@@H](C)O3)[C@@H](N(C)C)[C@@H]2O)[C@@H](CC=O)C[C@@H](C)[C@@H](O[C@H]2CC[C@H](N(C)C)[C@H](C)O2)/C=C/C=C/C[C@@H](C)OC(=O)C[C@H]1O [Spiramycin] | Prob-Train [4]: 0.538

Further results:

SMILES | OMR-Perf [1] | Prob-Test [2] | Prob-Naive [3] | Prob-Train [4]
O=c1c2ccccc2nc2n1CCc1c-2[nH]c2ccccc12 [Rutaecarpine] | -0.599 | -0.311 | 0.146 | -0.342
COc1cc(O)c2c(c1)C(=O)c1cc(C)cc(O)c1C2=O [Rheochrysidin] | -0.425 | -0.926 | 0.146 | -0.073
Cl.N=C(N)NC(=O)c1nc(Cl)c(N)nc1N [Amiloride HCl] | -0.333 | -0.421 | -0.317 | -0.686
CC[C@H]1OC(=O)C[C@@H](O)[C@H](C)[C@@H](O[C@@H]2O[C@@H](C)[C@@H](O)[C@H](N(C)C)[C@H]2O)[C@@H](CCN2C[C@H](C)C[C@@H](C)C2)C[C@@H](C)C(=O)/C=C/C(C)=C/[C@H]1CO[C@@H]1O[C@@H](C)[C@@H](O)[C@@H](OC)[C@H]1OC [Tilmicosin] | 0.0127 | -0.225 | -0.181 | -0.727
CCC(CC)n1ccc2c(C(=O)NCc3c(C)cc(C)[nH]c3=O)cc(C#N)cc21 | 0.237 | -0.643 | -0.0813 | -0.121
O=C(NC[C@H](O)CO)c1ccncc1Nc1ccc(I)cc1F | -0.587 | -1.57 | -0.212 | -1.3
CN(C)c1nc(N(C)C)nc(N(C)C)n1 [Altretamine] | 0.111 | 0.18 | -0.424 | 0.131
O=C1c2ccccc2C(=O)c2c1ccc(O)c2O [Alizarin] | -0.096 | -0.493 | -0.443 | -1.33
CC(C)(C)/[N+]([O-])=C/c1ccc(S(=O)(=O)[O-])cc1S(=O)(=O)[O-].[Na+].[Na+] | -0.0186 | 0.392 | -0.101 | 0.602
O=C1NCCc2[nH]c(-c3ccncc3)cc21 | -0.243 | 0.14 | -0.397 | -0.165
CC(=O)NCC(=O)N1[C@H]2CC[C@H]1c1cc(Nc3ncc(C(F)(F)F)c(NC4CCC4)n3)ccc12 | -0.303 | 0.551 | -0.193 | 0.493
Cc1cn(-c2cc(NC(=O)c3ccc(C)c(Nc4nccc(-c5cccnc5)n4)c3)cc(C(F)(F)F)c2)cn1 [Nilotinib (AMN-107)] | -0.438 | 0.207 | 0.00409 | -0.0948
CC(Oc1cc(-c2cnn(C3CCNCC3)c2)cnc1N)c1c(Cl)ccc(F)c1Cl [(S)-crizotinib] | -0.64 | -0.442 | -0.344 | -0.279
CCCCCCCCCCCCc1ccc(S(=O)(=O)Nc2nncs2)cc1 | 0.155 | -0.158 | 0.173 | -0.445
CCCOc1ccc(C(=O)OCCN(CC)CC)cc1N.Cl [Proparacaine HCl] | -0.159 | -0.189 | 0.42 | 0.307
Cc1ccc(-c2c(-c3nn(C)c4ncnc(N5CC[C@H](N6CCCCC6)C5)c34)cnn2C)cc1 | 0.368 | -0.47 | -0.263 | -0.306
O=S(=O)([O-])CCSSCCS(=O)(=O)[O-].[Na+].[Na+] [Dimesna] | -0.596 | 0.512 | -0.138 | 0.00914
Cn1cnc([N+](=O)[O-])c1Sc1ncnc2nc[nH]c12 [Azathioprine] | -0.938 | -0.225 | 0.454 | -0.172
CC(=O)Nc1cccc(-n2c(=O)n(C3CC3)c(=O)c3c(Nc4ccc(I)cc4F)n(C)c(=O)c(C)c32)c1 | -0.77 | -1.94 | 0.289 | -1.05
Nc1nc2[nH]nnc2c(=O)[nH]1 [Azaguanine-8] | -0.124 | -0.108 | -0.328 | -0.269
COc1cc2nc(N3CCCN(C)CC3)nc(NC3CCN(Cc4ccccc4)CC3)c2cc1OC.Cl.Cl.Cl | 0.387 | 0.153 | 0.446 | 0.26
CCOc1cc2ncc(C#N)c(Nc3ccc(F)c(Cl)c3)c2cc1NC(=O)/C=C/CN(C)C [Pelitinib (EKB-569)] | -0.157 | 0.249 | -0.043 | -0.698
COc1ccc(-c2cc(=O)c3c(O)cc(O[C@@H]4O[C@H](CO[C@@H]5O[C@@H](C)[C@@H](O)[C@@H](O)[C@H]5O)[C@@H](O)[C@H](O)[C@H]4O)cc3o2)cc1O [Diosmin] | -0.531 | -0.245 | -0.0681 | 0.282
CC[C@@H]1C(=O)N(C)c2cnc(Nc3ccc(C(=O)N[C@H]4CC[C@H](N5CCN(CC6CC6)CC5)CC4)cc3OC)nc2N1C(C)C [Volasertib (BI 6727)] | -0.376 | -0.0472 | -0.397 | -0.426
CC1(COc2ccc3c(c2)ncn3-c2ccc3cccc(N4CCC(N)CC4)c3n2)COC1 | -0.0927 | 0.137 | 0.148 | -0.141
